Measurements reported in PubChem BioAssay AID1259254 (NCATS, 2017)
Aim: 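Genome-wide screen for genes that prevent DNA re-replication in cancer cells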 (primary screen). System: human HCT116 colorectal cancer cells. Knock-down reagent: single siRNA against human genes. Duration: 3 days. Measured: 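Imaged Hoechst DNA stain sorts each cell into a cycle phase by DNA amount; per plate, G2 fraction set to 0% for non-targeting and 100% for GMNN siRNA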. Reading the numbers: G2 robust z-score and G2 cells, % of GMNN control: higher = more G2 cells, more excess DNA replication; raw share of cells in G2: higher = larger share of cells with G2 DNA content. Active means: 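Active siRNAs have a G2 robust z of 5 or more median absolute deviations over the median, which in these data means about 38% or higher of GMNN control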.
This is one part, drawn at random, of about 59,000 reagents tested. About 1,550 of them (2.6%) count as active. 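G2 share is only a proxy for re-replication; each gene was hit by three separate siRNAs, and active genes were retested.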 Raw values are not corrected between plates. Entries without a mark were called inactive. Reagents against one gene are numbered here. The record does not give: the amount of reagent.

| gene | reagent no. | G2 robust z-score | G2 cells, % of GMNN control | raw share of cells in G2 (%) |
| --- | --- | --- | --- | --- |
| CD70 (CD70 molecule) | 1 | -0.559 | -0.963 | 3.15 |
| CD70 (CD70 molecule) | 2 | 0.647 | 7.52 | 8.83 |
| CD70 (CD70 molecule) | 3 | -0.0373 | 2.71 | 5.08 |
| GUCY2F (guanylate cyclase 2F, retinal) | 1 | -0.458 | -0.253 | 4.95 |
| GUCY2F (guanylate cyclase 2F, retinal) | 2 | 4.15 | 32.2 | 17.9 |
| GUCY2F (guanylate cyclase 2F, retinal) | 3 | -0.514 | -0.648 | 3.96 |
| LRRIQ1 (leucine rich repeats and IQ motif containing 1) | 1 | -0.75 | -2.31 | 3.93 |
| LRRIQ1 (leucine rich repeats and IQ motif containing 1) | 2 | -0.412 | 0.0677 | 4.22 |
| LRRIQ1 (leucine rich repeats and IQ motif containing 1) | 3 | 0.322 | 5.23 | 7.61 |
| LOC100288914 (mannosidase beta like pseudogene) | 1 | 0.221 | 4.52 | 5.66 |
| LOC100288914 (mannosidase beta like pseudogene) | 2 | 3.28 | 26 | 11.7 |
| LOC100288914 (mannosidase beta like pseudogene) | 3 | 1.24 | 11.7 | 7.66 |
| ARID3A (AT-rich interaction domain 3A) | 1 | 0.625 | 7.37 | 6.63 |
| ARID3A (AT-rich interaction domain 3A) | 2 | -0.832 | -2.89 | 3.94 |
| ARID3A (AT-rich interaction domain 3A) | 3 | -0.379 | 0.301 | 5.07 |
| POFUT4 (protein O-fucosyltransferase 4) | 1 | -0.564 | -1 | 5.48 |
| POFUT4 (protein O-fucosyltransferase 4) | 2 | 0.816 | 8.71 | 7.89 |
| POFUT4 (protein O-fucosyltransferase 4) | 3 | 0.525 | 6.66 | 7.5 |
| H4C1 (H4 clustered histone 1) | 1 | 0.629 | 7.39 | 7.07 |
| H4C1 (H4 clustered histone 1) | 2 | -0.0665 | 2.5 | 4.19 |
| H4C1 (H4 clustered histone 1) | 3 | -0.429 | -0.0494 | 2.97 |
| TTC7A (tetratricopeptide repeat domain 7A) | 1 | 1.74 | 15.2 | 11.9 |
| TTC7A (tetratricopeptide repeat domain 7A) | 2 | 3.88 | 30.2 | 15 |
| TTC7A (tetratricopeptide repeat domain 7A) | 3 | -0.257 | 1.16 | 4.65 |
| CCDC80 (coiled-coil domain containing 80) | 1 | -0.537 | -0.814 | 3.56 |
| CCDC80 (coiled-coil domain containing 80) | 2 | -0.488 | -0.469 | 2.77 |
| CCDC80 (coiled-coil domain containing 80) | 3 | -0.861 | -3.09 | 1.99 |
| ABCA16P (ATP binding cassette subfamily A member 16, pseudogene) | 1 | 2.23 | 18.7 | 10.4 |
| ABCA16P (ATP binding cassette subfamily A member 16, pseudogene) | 2 | -0.373 | 0.341 | 3.41 |
| ABCA16P (ATP binding cassette subfamily A member 16, pseudogene) | 3 | 1.47 | 13.3 | 9.54 |
